B1: FAM46A (protein, UniProt Q96IP4 1-442, looked up)
Terminal …: MAEGEGYFAMSEDELACSPYIPLGGDFGGGDFGGGDFGGGDFGGGGSFGGHCLDYCESPTAHCNVLNWEQVQRLDGILSETIPIHGRGNFPTLELQPSLIVKVVRRRLAEKRIGVRDVRLNGSAASHVLHQDSGLGYKDLDLIFCADLRGEGEFQTVKDVVLDCLLDFLPEGVNKEKITPLTLKEAYVQKMVKVCNDSDRWSLISLSNNSGKNVELKFVDSLRRQFEFSVDSFQIKLDSLLLFYECSENPMTETFHPTIIGESVYGDFQEAFDHLCNKIIATRNPEEIRGGGLLKYCNLLVRGFRPASDEIKTLQRYMCSRFFIDFSDIGEQQRKLESYLQNHFVGLEDRKYEYLMTLHGVVNESTVCLMGHERRQTLNLITMLAIRVLADQNVIPNVANVTCYYQPAPYVADANFSNYYIAQVQPVFTCQQQTYSTWLPCN
B2: CSF3R (protein, UniProt Q99062 25-836, looked up)
Granulocyte …: ECGHISVSAPIVHLGDPITASCIIKQNCSHLDPEPQILWRLGAELQPGGRQQRLSDGTQESIITLPHLNHTQAFLSCCLNWGNSLQILDQVELRAGYPPAIPHNLSCLMNLTTSSLICQWEPGPETHLPTSFTLKSFKSRGNCQTQGDSILDCVPKDGQSHCCIPRKHLLLYQNMGIWVQAENALGTSMSPQLCLDPMDVVKLEPPMLRTMDPSPEAAPPQAGCLQLCWEPWQPGLHINQKCELRHKPQRGEASWALVGPLPLEALQYELCGLLPATAYTLQIRCIRWPLPGHWSDWSPSLELRTTERAPTVRLDTWWRQRQLDPRTVQLFWKPVPLEEDSGRIQGYVVSWRPSGQAGAILPLCNTTELSCTFHLPSEAQEVALVAYNSAGTSRPTPVVFSESRGPALTRLHAMARDPHSLWVGWEPPNPWPQGYVIEWGLGPPSASNSNKTWRMEQNGRATGFLLKENIRPFQLYEIIVTPLYQDTMGPSQHVYAYSQEMAPSHAPELHLKHIGKTWAQLEWVPEPPELGKSPLTHYTIFWTNAQNQSFSAILNASSRGFVLHGLEPASLYHIHLMAASQAGATNSTVLTLMTLTPEGSELHIILGLFGLLLLLTCLCGTAWLCCSPNRKNPLWPSVPDPAHSSLGSWVPTIMEEDAFQLPGLGTPPITKLTVLEEDEKKPVPWESHNSSETCGLPTLVQTYVLQGDPRAVSTQPQSQSGTSDQVLYGQLLGSPTSPGPGHYLRCDSTQPLLAGLTPSPKSYENLWFQASPLGTLVTPAPSQEDDCVFGPLLNFPLLQGIRVHGMEALGSF
B3: NOC4L (protein, UniProt Q9BVI4 1-516, looked up)
Nucleolar complex protein 4 …: MEREPGAAGVRRALGRRLEAVLASRSEANAVFDILAVLQSEDQEEIQEAVRTCSRLFGALLERGELFVGQLPSEEMVMTGSQGATRKYKVWMRHRYHSCCNRLGELLGHPSFQVKELALSALLKFVQLEGAHPLEKSKWEGNYLFPRELFKLVVGGLLSPEEDQSLLLSQFREYLDYDDTRYHTMQAAVDAVARVTGQHPEVPPAFWNNAFTLLSAVSLPRREPTVSSFYVKRAELWDTWKVAHLKEHRRVFQAMWLSFLKHKLPLSLYKKVLLIVHDAILPQLAQPTLMIDFLTRACDLGGALSLLALNGLFILIHKHNLEYPDFYRKLYGLLDPSVFHVKYRARFFHLADLFLSSSHLPAYLVAAFAKRLARLALTAPPEALLMVLPFICNLLRRHPACRVLVHRPHGPELDADPYDPGEEDPAQSRALESSLWELQALQRHYHPEVSKAASVINQALSMPEVSIAPLLELTAYEIFERDLKKKGPEPVPLEFIPAQGLLGRPGELCAQHFTLS
B4: UCK2 (protein, UniProt Q9BZX2 2-261, looked up)
Uridine-cytidine kinase 2: AGDSEQTLQNHQQPNGGEPFLIGVSGGTASGKSSVCAKIVQLLGQNEVDYRQKQVVILSQDSFYRVLTSEQKAKALKGQFNFDHPDAFDNELILKTLKEITEGKTVQIPVYDFVSHSRKEETVTVYPADVVLFEGILAFYSQEVRDLFQMKLFVDTDADTRLSRRVLRDISERGRDLEQILSQYITFVKPAFEEFCLPTKKYADVIIPRGADNLVAINLIVQHIQDILNGGPSKRQTNGCLNGYTPSRKRQASESSSRPH
B5: GMNN (protein, UniProt O75496 1-209, looked up)
Geminin: MNPSMKQKQEEIKENIKNSSVPRRTLKMIQPSASGSLVGRENELSAGLSKRKHRNDHLTSTTSSPGVIVPESSENKNLGGVTQESFDLMIKENPSSQYWKEVAEKRRKALYEALKENEKLHKEIEQKDNEIARLKKENKELAEVAEHVQYMAELIERLNGEPLDNFESLDNQEFDSEEETVEDSLVEDSEIGTCAEGTVSSSTDAKPCI
B6: PHPT1 (protein, UniProt Q9NRX4 2-125, looked up)
14 kDa phosphohistidine …: AVADLALIPDVDIDSDGVFKYVLIRVHSAPRSGAPAAESKEIVRGYKWAEYHADIYDKVSGDMQKQGCDCECLGGGRISHQSQDKKIHVYGYSMAYGPAQHAISTEKIKAKYPDYEVTWANDGY
B7: KIF15 (protein, UniProt Q9NS87 1-1388, looked up)
Kinesin-like protein KIF15: MAPGCKTELRSVTNGQSNQPSNEGDAIKVFVRIRPPAERSGSADGEQNLCLSVLSSTSLRLHSNPEPKTFTFDHVADVDTTQESVFATVAKSIVESCMSGYNGTIFAYGQTGSGKTFTMMGPSESDNFSHNLRGVIPRSFEYLFSLIDREKEKAGAGKSFLCKCSFIEIYNEQIYDLLDSASAGLYLREHIKKGVFVVGAVEQVVTSAAEAYQVLSGGWRNRRVASTSMNRESSRSHAVFTITIESMEKSNEIVNIRTSLLNLVDLAGSERQKDTHAEGMRLKEAGNINRSLSCLGQVITALVDVGNGKQRHVCYRDSKLTFLLRDSLGGNAKTAIIANVHPGSRCFGETLSTLNFAQRAKLIKNKAVVNEDTQGNVSQLQAEVKRLKEQLAELASGQTPPESFLTRDKKKTNYMEYFQEAMLFFKKSEQEKKSLIEKVTQLEDLTLKKEKFIQSNKMIVKFREDQIIRLEKLHKESRGGFLPEEQDRLLSELRNEIQTLREQIEHHPRVAKYAMENHSLREENRRLRLLEPVKRAQEMDAQTIAKLEKAFSEISGMEKSDKNQQGFSPKAQKEPCLFANTEKLKAQLLQIQTELNNSKQEYEEFKELTRKRQLELESELQSLQKANLNLENLLEATKACKRQEVSQLNKIHAETLKIITTPTKAYQLHSRPVPKLSPEMGSFGSLYTQNSSILDNDILNEPVPPEMNEQAFEAISEELRTVQEQMSALQAKLDEEEHKNLKLQQHVDKLEHHSTQMQELFSSERIDWTKQQEELLSQLNVLEKQLQETQTKNDFLKSEVHDLRVVLHSADKELSSVKLEYSSFKTNQEKEFNKLSERHMHVQLQLDNLRLENEKLLESKACLQDSYDNLQEIMKFEIDQLSRNLQNFKKENETLKSDLNNLMELLEAEKERNNKLSLQFEEDKENSSKEILKVLEAVRQEKQKETAKCEQQMAKVQKLEESLLATEKVISSLEKSRDSDKKVVADLMNQIQELRTSVCEKTETIDTLKQELKDINCKYNSALVDREESRVLIKKQEVDILDLKETLRLRILSEDIERDMLCEDLAHATEQLNMLTEASKKHSGLLQSAQEELTKKEALIQELQHKLNQKKEEVEQKKNEYNFKMRQLEHVMDSAAEDPQSPKTPPHFQTHLAKLLETQEQEIEDGRASKTSLEHLVTKLNEDREVKNAEILRMKEQLREMENLRLESQQLIEKNWLLQGQLDDIKRQKENSDQNHPDNQQLKNEQEESIKERLAKSKIVEEMLKMKADLEEVQSALYNKEMECLRMTDEVERTQTLESKAFQEKEQLRSKLEEMYEERERTSQEMEMLRKQVECLAEENGKLVGHQNLHQKIQYVVRLKKENVRLAEETEKLRAENVFLKEKKRSES
B8: SLC12A6 (protein, UniProt Q9UHW9 1-1150, looked up)
Solute carrier family 12 …: MHPPETTTKMASVRFMVTPTKIDDIPGLSDTSPDLSSRSSSRVRFSSRESVPETSRSEPMSEMSGATTSLATVALDPPSDRTSHPQDVIEDLSQNSITGEHSQLLDDGHKKARNAYLNNSNYEEGDEYFDKNLALFEEEMDTRPKVSSLLNRMANYTNLTQGAKEHEEAENITEGKKKPTKTPQMGTFMGVYLPCLQNIFGVILFLRLTWVVGTAGVLQAFAIVLICCCCTMLTAISMSAIATNGVVPAGGSYFMISRALGPEFGGAVGLCFYLGTTFAAAMYILGAIEIFLVYIVPRAAIFHSDDALKESAAMLNNMRVYGTAFLVLMVLVVFIGVRYVNKFASLFLACVIVSILAIYAGAIKSSFAPPHFPVCMLGNRTLSSRHIDVCSKTKEINNMTVPSKLWGFFCNSSQFFNATCDEYFVHNNVTSIQGIPGLASGIITENLWSNYLPKGEIIEKPSAKSSDVLGSLNHEYVLVDITTSFTLLVGIFFPSVTGIMAGSNRSGDLKDAQKSIPIGTILAILTTSFVYLSNVVLFGACIEGVVLRDKFGDAVKGNLVVGTLSWPSPWVIVIGSFFSTCGAGLQSLTGAPRLLQAIAKDNIIPFLRVFGHSKANGEPTWALLLTAAIAELGILIASLDLVAPILSMFFLMCYLFVNLACALQTLLRTPNWRPRFRYYHWALSFMGMSICLALMFISSWYYAIVAMVIAGMIYKYIEYQGAEKEWGDGIRGLSLSAARFALLRLEEGPPHTKNWRPQLLVLLKLDEDLHVKHPRLLTFASQLKAGKGLTIVGSVIVGNFLENYGEALAAEQTIKHLMEAEKVKGFCQLVVAAKLREGISHLIQSCGLGGMKHNTVVMGWPNGWRQSEDARAWKTFIGTVRVTTAAHLALLVAKNISFFPSNVEQFSEGNIDVWWIVHDGGMLMLLPFLLKQHKVWRKCSIRIFTVAQLEDNSIQMKKDLATFLYHLRIEAEVEVVEMHDSDISAYTYERTLMMEQRSQMLRHMRLSKTERDREAQLVKDRNSMLRLTSIGSDEDEETETYQEKVHMTWTKDKYMASRGQKAKSMEGFQDLLNMRPDQSNVRRMHTAVKLNEVIVNKSHEAKLVLLNMPGPPRNPEGDENYMEFLEVLTEGLERVLLVRGGGSEVITIYS
B9: DOLK (protein, UniProt Q9UPQ8 1-538, looked up)
Dolichol kinase: MTRECPSPAPGPGAPLSGSVLAEAAVVFAVVLSIHATVWDRYSWCAVALAVQAFYVQYKWDRLLQQGSAVFQFRMSANSGLLPASMVMPLLGLVMKERCQTAGNPFFERFGIVVAATGMAVALFSSVLALGITRPVPTNTCVILGLAGGVIIYIMKHSLSVGEVIEVLEVLLIFVYLNMILLYLLPRCFTPGEALLVLGGISFVLNQLIKRSLTLVESQGDPVDFFLLVVVVGMVLMGIFFSTLFVFMDSGTWASSIFFHLMTCVLSLGVVLPWLHRLIRRNPLLWLLQFLFQTDTRIYLLAYWSLLATLACLVVLYQNAKRSSSESKKHQAPTIARKYFHLIVVATYIPGIIFDRPLLYVAATVCLAVFIFLEYVRYFRIKPLGHTLRSFLSLFLDERDSGPLILTHIYLLLGMSLPIWLIPRPCTQKGSLGGARALVPYAGVLAVGVGDTVASIFGSTMGEIRWPGTKKTFEGTMTSIFAQIISVALILIFDSGVDLNYSYAWILGSISTVSLLEAYTTQIDNLLLPLYLLILLMA

Test system: primary AML samples
Experiment: HLA class I ligandome analysis (W6/32 immunoaffinity purification, LC-MS/MS) of primary AML samples
Design: species or system human
Conditions: for Number of positive AMLs: HLA class I ligandome, AML patients (n=15), count for the HLA ligand (LiTAP) or, on protein lines, for the source protein (LiTAA); for Number of positive AMLs [rep. frequency]: representation frequency of the source protein (LiTAA) in AML patients (n=15)

Molecule | Number of positive AMLs | Number of positive AMLs [rep. frequency]
B1 | 4 | [26.7%]
B2 | 4 | [26.7%]
B3 | 4 | [26.7%]
B4 | 4 | [26.7%]
B5 | 6 | [40.0%]
B6 | 4 | [26.7%]
B7 | 4 | [26.7%]
B8 | 4 | [26.7%]
B9 | 4 | [26.7%]
